This passage reports binding results from article doi:10.1101/2021.05.27.445972.

By UniProt entry, the sequences of proteins in these tests, tags left out. Where a name states a change or a piece, a line headed by the entry shows the natural chain unless it says otherwise. Chains listed by the source or under a name are the forms on record and can include a tag or linker.
human HELB (Q8NG08, form named): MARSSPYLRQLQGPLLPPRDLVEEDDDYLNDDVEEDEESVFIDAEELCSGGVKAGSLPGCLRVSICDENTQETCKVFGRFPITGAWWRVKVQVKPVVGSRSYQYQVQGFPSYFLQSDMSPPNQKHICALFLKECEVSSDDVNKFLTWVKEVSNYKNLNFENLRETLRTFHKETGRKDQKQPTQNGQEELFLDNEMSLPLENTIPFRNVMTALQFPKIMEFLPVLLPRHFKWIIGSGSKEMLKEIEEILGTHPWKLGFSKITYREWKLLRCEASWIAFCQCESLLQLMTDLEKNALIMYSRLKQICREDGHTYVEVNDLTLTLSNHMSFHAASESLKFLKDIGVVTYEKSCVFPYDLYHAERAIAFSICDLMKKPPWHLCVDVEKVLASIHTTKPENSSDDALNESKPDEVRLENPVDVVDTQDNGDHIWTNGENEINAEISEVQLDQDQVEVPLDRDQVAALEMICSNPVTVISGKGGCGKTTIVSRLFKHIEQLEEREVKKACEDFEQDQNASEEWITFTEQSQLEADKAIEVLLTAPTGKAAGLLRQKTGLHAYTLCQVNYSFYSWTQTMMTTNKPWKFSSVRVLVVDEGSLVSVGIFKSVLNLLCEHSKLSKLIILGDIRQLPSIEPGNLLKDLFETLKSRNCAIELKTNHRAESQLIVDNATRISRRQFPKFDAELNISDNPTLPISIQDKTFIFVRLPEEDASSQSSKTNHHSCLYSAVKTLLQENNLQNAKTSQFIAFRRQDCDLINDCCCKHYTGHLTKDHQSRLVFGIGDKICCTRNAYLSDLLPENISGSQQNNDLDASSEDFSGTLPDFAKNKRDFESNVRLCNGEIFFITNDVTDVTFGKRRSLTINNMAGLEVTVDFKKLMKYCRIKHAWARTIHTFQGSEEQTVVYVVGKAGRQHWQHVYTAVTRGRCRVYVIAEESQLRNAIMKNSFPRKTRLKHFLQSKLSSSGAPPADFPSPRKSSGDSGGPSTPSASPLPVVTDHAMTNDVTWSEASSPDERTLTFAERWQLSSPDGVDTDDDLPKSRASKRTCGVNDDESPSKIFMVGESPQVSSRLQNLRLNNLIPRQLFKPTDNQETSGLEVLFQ

No constants are given. Whether binding was seen depends on the method and setting.

In the assay the target is human HELB (human) (UniProt Q8NG08). Briefly: SEC-MALS. For orientation: SEC sorts molecules by how far they enter the pores of the column.

With “human HELB (from UniProt Q8NG08 1-1087) (enzyme)”, the binding entry is “no binding”.
